# Screening data

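Wild-type E. coli carrying GFP, grown in the same well as an h34 humanized-ribosome RFP strain; GFP fluorescence for growth, read after 24 h.
The value is the change in activity at the highest dose tested; more negative means stronger inhibition.
Active requires GFP to fall at least twice as much as RFP with growth loss below a set limit; inconclusive means no clear call; everything else is inactive.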

These entries are mostly ones the record files as inconclusive; other results of the assay are not listed here.

SMILES: O=C(NCc1ccccc1)C1C(=O)Nc2ccccc2C(=O)N1c1ccc2c(c1)OCCO2 (configuration not stated)
tested on / at: at 50 µM (top of the series)
activity change: 2.168
filed as: inconclusive

SMILES: O=C(NCc1ccco1)c1ccc2ccccc2n1
tested on / at: at 50 µM (top of the series)
activity change: 34.07
filed as: inconclusive

SMILES: NS(=O)(=O)c1cc(C(=O)OCC(=O)Nc2ccccc2[N+](=O)[O-])ccc1Cl
tested on / at: at 50 µM (top of the series)
activity change: 1.985
filed as: inactive

SMILES: COc1ccc2c(c1)-c1nc(N)sc1CC2
tested on / at: at 50 µM (top of the series)
activity change: 12.7
filed as: inconclusive

SMILES: O=C1CCCc2ccccc2N1Cc1ccccc1
tested on / at: at 50 µM (top of the series)
activity change: 5.78
filed as: inconclusive

SMILES: O=C(c1cccc2c1-c1ccccc1C2)N1CCCCC1
tested on / at: at 50 µM (top of the series)
activity change: 26.47
filed as: inconclusive

SMILES: C=C1c2cc3c(cc2NC(=S)N1Cc1ccccc1)OCO3
tested on / at: at 50 µM (top of the series)
activity change: 16.08
filed as: inconclusive

SMILES: COc1ccc(C(=O)NCCC2=CCCCC2)cc1[N+](=O)[O-]
tested on / at: at 50 µM (top of the series)
activity change: 26.65
filed as: inconclusive

SMILES: Cc1cccc(C)c1OCc1n[nH]c(=S)n1-c1ccccc1
tested on / at: at 50 µM (top of the series)
activity change: -13.13
filed as: inconclusive

SMILES: COc1cc(CN2CC(=O)N(c3ccccc3Cl)C2=S)cc(OC)c1OC
tested on / at: at 50 µM (top of the series)
activity change: 13.86
filed as: inconclusive

SMILES: COc1ccc(N2C(=O)C3C(c4ccc(C(=O)O)cc4)NC(Cc4ccccc4)(C(=O)O)C3C2=O)c([N+](=O)[O-])c1 (configuration not stated)
tested on / at: at 50 µM (top of the series)
activity change: 51.38
filed as: inconclusive

SMILES: CCC(=O)Nc1nc2c(OC)ccc(OC)c2s1
tested on / at: at 50 µM (top of the series)
activity change: 1.495
filed as: inactive

SMILES: CN(C)S(=O)(=O)c1cccc(C(=O)Nc2ccc3c(c2)CCC3)c1
tested on / at: at 50 µM (top of the series)
activity change: -4.887
filed as: inconclusive

SMILES: C=CCN(CC=C)C(=O)c1ccc2nc(Cc3ccc(OC)c(OC)c3)oc2c1
tested on / at: at 50 µM (top of the series)
activity change: 7.856
filed as: inconclusive

SMILES: COc1ccc(C)c2sc(N(CCN(C)C)C(=O)c3ccc(S(=O)(=O)N(C)c4ccccc4)cc3)nc12
tested on / at: at 50 µM (top of the series)
activity change: -6.475
filed as: inconclusive

SMILES: CC(C)[C@@H]1CC[C@@H](C)C[C@H]1O
tested on / at: at 50 µM (top of the series)
activity change: 26.23
filed as: inconclusive

SMILES: CNC(=O)c1sc(-c2ccccn2)nc1C
tested on / at: at 50 µM (top of the series)
activity change: 48.26
filed as: inconclusive

SMILES: CC(C)OC(=O)c1sc2nc(-c3ccccc3)ccc2c1N
tested on / at: at 50 µM (top of the series)
activity change: 27.58
filed as: inconclusive

SMILES: NC(=O)c1cc(C(=O)c2ccc(Cl)cc2)c[nH]1
tested on / at: at 50 µM (top of the series)
activity change: -7.75
filed as: inconclusive

SMILES: NS(=O)(=O)c1cccc(NC(=O)COc2ncnc3c2cnn3-c2ccccc2)c1
tested on / at: at 50 µM (top of the series)
activity change: 14.28
filed as: inconclusive

SMILES: Cc1ccc(N2C(=O)NC(NS(=O)(=O)c3ccccc3)(C(F)(F)F)C2=O)cc1C (configuration not stated)
tested on / at: at 50 µM (top of the series)
activity change: 0.822
filed as: inactive

SMILES: O=C(COc1ccc(S(=O)(=O)N2CCCC2)cc1)NCCC1=CCCCC1
tested on / at: at 50 µM (top of the series)
activity change: -18.92
filed as: inconclusive

The last 2 entries again:

Cc1ccc(N2C(=O)NC(NS(=O)(=O)c3ccccc3)(C(F)(F)F)C2=O)cc1C (configuration not stated) [at 50 µM (top of the series)] read activity change 0.822 (inactive).
O=C(COc1ccc(S(=O)(=O)N2CCCC2)cc1)NCCC1=CCCCC1 [at 50 µM (top of the series)] read activity change -18.92 (inconclusive).

Source: PubChem BioAssay AID977624 (Broad Institute, 2014).